Reference: PubChem BioAssay AID1671190 (National Center for Advancing Translational Sciences (NCATS), 2021)
“And” between values parts separate entries of the source, which are not always exact repeats. Identical values can stand only once. About 6,100 (1.1%) of roughly 580,000 compounds were called active. Inconclusive results, whose numbers are uncertain, are shown with a selection of clear calls. Calls come from the whole dose curve; as a rule, active = well fitted inhibition curve with a large enough effect; inconclusive = small, poorly fitted or top-dose-only effect, or another doubt; inactive = no such curve, though single readings can be large or run the other way. Potencies beside an inconclusive call are fits to weak or partial responses and may not hold up.
Potency is the fitted concentration of half-maximal effect.

Chains of the proteins cited; added tags and fusions are not shown. Lines headed by an entry give the natural chain unless they say otherwise; changes in a name come on top.
UniProt P18054: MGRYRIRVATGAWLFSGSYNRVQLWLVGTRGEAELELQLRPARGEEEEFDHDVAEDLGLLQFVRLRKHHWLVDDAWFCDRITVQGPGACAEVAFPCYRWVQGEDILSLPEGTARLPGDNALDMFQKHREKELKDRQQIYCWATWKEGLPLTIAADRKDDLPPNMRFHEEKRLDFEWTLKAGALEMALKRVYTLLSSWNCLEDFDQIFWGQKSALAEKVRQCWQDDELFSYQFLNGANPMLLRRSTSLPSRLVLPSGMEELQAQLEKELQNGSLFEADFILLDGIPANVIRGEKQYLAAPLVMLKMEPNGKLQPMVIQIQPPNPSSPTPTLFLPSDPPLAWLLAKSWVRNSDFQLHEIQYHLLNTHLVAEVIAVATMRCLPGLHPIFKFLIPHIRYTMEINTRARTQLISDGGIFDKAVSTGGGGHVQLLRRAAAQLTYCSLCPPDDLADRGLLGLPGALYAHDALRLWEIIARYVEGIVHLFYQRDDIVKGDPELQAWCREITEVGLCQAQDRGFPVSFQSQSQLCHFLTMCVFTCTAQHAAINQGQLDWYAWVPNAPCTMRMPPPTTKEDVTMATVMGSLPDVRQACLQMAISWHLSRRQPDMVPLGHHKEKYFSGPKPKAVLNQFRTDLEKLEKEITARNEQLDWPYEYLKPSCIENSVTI

What follows are compounds tested against Polyunsaturated fatty acid lipoxygenase ALOX12 (Homo sapiens) (UniProt P18054) (assay: Primary qHTS assay for inhibitors of human arachidonate 12S-lipoxygenase (ALOX12): Round 2). Settings: purified 12hLO, xylenol orange hydroperoxide absorbance; series mostly up to 108 µM.
Summary of the method: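 Purified human 12hLO at 150 nM in 25 mM Hepes, 0.01% Triton X-100, pH 7.0, preincubated 15 min at room temperature with compound. Reaction started with 40 uM arachidonic acid, 30 min at room temperature. Hydroperoxide measured by Fe-xylenol orange, 573/405 nm absorbance ratio.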
For `COc1cc2c(cc1OCc1ccccc1)N(C(=O)Cc1ccc3c(c1)OCO3)CC21CCN(C)CC1`, the Potency was inconclusive: 44.7 µM [inhibitor, partial curve].
In the case of `COc1cccc(C2CCN(CC(=O)Nc3cc(Cl)ccc3OC)CC2O)c1` (stereo unspecified), the Potency was “inactive”.
For `O=C(N/N=C/c1c(O)n(CCc2ccc(F)cc2)c(=O)[nH]c1=O)c1ccncc1`, the Potency was “inactive”.
In the case of `O=C(c1ccco1)c1cn(Cc2ccc(Cl)cc2)c2ccccc12`, the Potency was inconclusive: 28.2 µM [inhibitor, single point].
With `COc1ccc(C(c2nnnn2-c2ccc(OC)cc2)N2CCC3(CC2)C(=O)NCN3c2ccccc2)cc1` (stereo unspecified) the Potency was inconclusive: 79.4 µM [inhibitor, partial curve, poor fit].
In the case of `O=C(Cc1c(F)cccc1Cl)N1CCN(Cc2ccccc2)CC(O)C1` (stereo unspecified), the Potency was “inactive”.
With `N#Cc1c(N)[n+]([O-])c2ccccc2[n+]1[O-]` the Potency was inconclusive: 1.26 µM [inhibitor, full curve].
In the case of `O=C(N/N=C/c1c(O)n(C2CC2)c(=S)[nH]c1=O)c1ccccc1Cl`, the Potency was inconclusive: 7.08 µM [inhibitor, full curve, poor fit].
With `CCCN1C2CCCC1CC(NC(C)=O)C2` (stereo unspecified) the Potency was “inactive”.
In the case of `ON1C2CCCCC2N(O)C1c1ccco1` (stereo unspecified), the Potency was inconclusive: 35.5 µM [inhibitor, partial curve, poor fit].
With `O=C1NC(=O)N(c2ccc3c(c2)OCO3)C(=O)/C1=C\c1ccsc1` the Potency was inconclusive: 31.6 µM [inhibitor, partial curve, poor fit].
`C[N+]1=CC2=c3c1c(O)c1c(c3=NCC2)C2(C=C(Br)C(=O)C(Br)=C2)CCN1` was tested, and the Potency was inconclusive: 44.7 µM [inhibitor, partial curve, poor fit].
For `O=C1CC(=O)N(c2cccc(C(F)(F)F)c2)C(=O)N1`, the Potency was “inactive”.
In the case of `FC(F)(F)Oc1ccc(C2NCc3ccccc3-n3cccc32)cc1` (stereo unspecified), the Potency was inconclusive: 17.8 µM [inhibitor, single point].
With `CCCCc1ccc2[nH]c(C)c(CCN)c2c1` the Potency was active: 3.16 µM.
In the case of `O=C1C=CC[C@@H]2[C@H]3CCCN4CCC[C@@H](CN12)[C@@H]34`, the Potency was inconclusive: 17.2 µM [inhibitor, partial curve, poor fit] and inconclusive: 79.4 µM [inhibitor, single point].
With `CCC1C2Cn3c(nc4ccccc43)C1N(C)O2` (stereo unspecified) the Potency was inconclusive: 35.5 µM [inhibitor, single point].
With `CCC/C=C/C/C=C/C=C/C=N/NN=O` the Potency was inconclusive: 50.1 µM [inhibitor, partial curve, poor fit].
`CC(=O)C(C#N)c1ccccc1` (stereo unspecified) was tested, and the Potency was “inactive”.
`Cc1ccc(-c2nc3ccccc3c(=O)n2-c2cccc(O)c2)cc1` was tested, and the Potency was inconclusive: 89.1 µM [inhibitor, single point].
For `CCn1c(O)c(C=Nc2ccc(N3CCOCC3)c(Br)c2)c(=O)n(CC)c1=S`, the Potency was “inactive”.
In the case of `O=C1OCc2cc(N=Nc3c(O)[nH]c(=O)[nH]c3=O)ccc21`, the Potency was inconclusive: 100 µM [inhibitor, partial curve, poor fit].
For `Nc1cc(Cl)c2nonc2c1[N+](=O)[O-]`, the Potency was inconclusive: 3.16 µM [inhibitor, full curve, poor fit].
With `O=C1NC2(CCCN(Cc3ccccn3)C2)Oc2ccccc21` (stereo unspecified) the Potency was “inactive”.
With `CC1=C(O)C(=O)[C@@H]2O[C@@H]2C1=O` the Potency was inconclusive: 50.1 µM [inhibitor, partial curve, poor fit].
`Cc1cc(C=C2C(=O)NC(=O)NC2=O)c(C)n1-c1ccc2c(c1)OCO2` was tested, and the Potency was inconclusive: 44.7 µM [inhibitor, partial curve].
`CCOC(=O)C1(c2ccccc2)CCN(CC(=O)Nc2cccc3ccccc23)CC1` was tested, and the Potency was inconclusive: 56.2 µM [inhibitor, partial curve, poor fit].
In the case of `CCCCCCC(=O)N/N=C/c1c(O)n(C2CC2)c(=S)[nH]c1=O`, the Potency was “inactive”.
For `CCOC(=O)N1CCC(NC(=O)CCc2nc(C3=CCN(C)CC3)no2)CC1`, the Potency was inconclusive: 12.6 µM [inhibitor, partial curve, poor fit].
With `Cc1ccc(NC(=O)CN2C(=O)CN=C(c3ccc(F)cc3)c3c2sc(C)c3C)cc1` the Potency was inconclusive: 39.8 µM [inhibitor, partial curve, poor fit].
With `CCCCCc1nc2c(c(=O)c3ccccc3n2C)c(=O)n1C1CCCCCC1` the Potency was inconclusive: 50.1 µM [inhibitor, partial curve, poor fit].
With `CN1CCc2nc3sc(C#N)c(N)c3c(-c3cccs3)c2C1` the Potency was inconclusive: 15.8 µM [inhibitor, full curve, poor fit].
For `CCC(=NCc1cccnc1)c1c(O)n(-c2ccc(Cl)cc2)c(=O)[nH]c1=O`, the Potency was inconclusive: 31.6 µM [inhibitor, single point].
With `O=c1[nH]c(=S)[nH]c(O)c1N=Nc1ccc(S(=O)(=O)N2CCc3ccccc32)cc1` the Potency was “inactive”.
`O=C1Nc2ccccc2C2(CCN(CCc3ccc(C(F)(F)F)cc3)CC2)O1` was tested, and the Potency was inconclusive: 31.6 µM [inhibitor, single point].
For `O=C(NCCN1CCC2(CC1)C(=O)NCN2c1ccccc1)c1cc(C(F)(F)F)ccc1C(F)(F)F`, the Potency was inconclusive: 50.1 µM [inhibitor, partial curve, poor fit].
For `CCN(CC)P(=O)(c1n(CC)cc[n+]1CC)N(CC)CC`, the Potency was inconclusive: 39.8 µM [inhibitor, partial curve, poor fit].
In the case of `CS(=O)(=O)NNP(=O)(NNS(C)(=O)=O)NC(=O)c1ccc(Br)cc1`, the Potency was inconclusive: 50.1 µM [inhibitor, partial curve, poor fit].
For `O=[N+]([O-])c1ccc(-c2ccccc2)c([As](=O)(O)O)c1`, the Potency was inconclusive: 12.6 µM [inhibitor, partial curve, poor fit].
`COc1ccc(-c2cn(C[C@H]3C[C@@H]4CCN3C[C@@H]4C(=O)N(C)C)nn2)cc1` was tested, and the Potency was inconclusive: 112 µM [inhibitor, partial curve, poor fit].
`NC(=Nc1ccccc1)NN=Cc1c[nH]c2ccccc12` was tested, and the Potency was inconclusive: 50.1 µM [inhibitor, partial curve, poor fit].
